Assay results reported in ChEMBL document CHEMBL5365534, “Discovery of a Novel Ketohexokinase Inhibitor with Improved Drug Distribution in Target Tissue for the Treatment of Fructose Metabolic Disease” (J Med Chem, 2023).

What was measured:
physchem [1] = conditions: buffer, pH 7.4
physchem [2] = assay: physchem

## C[C@H]1CCN1c1nc(N2CCC3(CC(C(=O)O)C3)C2)cc(C(F)(F)F)c1C#N (some centres not stated)
Physchem [1]
  logD: 1.75
Physchem [2]
  solubility kinetic: > 1000 µM
